PubChem BioAssay AID1259254 | NCATS – 2017
Shown is one part, drawn at random, of about 59,000 reagents. Of all reagents, about 1,550 (2.6%) were called active. 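G2 share is only a proxy for re-replication; each gene was hit by three separate siRNAs, and active genes were retested.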 The numbers tell different reagents against one gene apart. Not all columns of the deposit are shown. Not stated in the record: the amount of reagent.

- Aim: 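Genome-wide screen for genes that prevent DNA re-replication in cancer cells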 (primary screen)
- System: human HCT116 colorectal cancer cells
- Reagent: single siRNA against human genes
- Time to read-out: 3 days
- Read-out: 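Nuclei stained with Hoechst and imaged; cell-cycle phase assigned by DNA content; G2 share scaled per plate, non-targeting siRNA 0%, GMNN siRNA 100%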
- Direction: G2 robust z-score: higher = more G2 cells, more excess DNA replication
- Active means: 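An siRNA counts as active if its G2 robust z-score lies at least 5 MADs above the screen median; here such calls match roughly 38% of GMNN control or more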

gene symbol | reagent no. | G2 robust z-score | activity call
SLC71A1 | 1 | -0.197 | inactive
SLC71A1 | 2 | 0.891 | inactive
SLC71A1 | 3 | 0.456 | inactive
CTSD | 1 | 0.416 | inactive
CTSD | 2 | 0.853 | inactive
CTSD | 3 | -0.879 | inactive
SLC15A1 | 1 | -0.818 | inactive
SLC15A1 | 2 | 0.648 | inactive
SLC15A1 | 3 | 2.63 | inactive
FOXI3 | 1 | 2.29 | inactive
FOXI3 | 2 | -0.707 | inactive
FOXI3 | 3 | -0.738 | inactive
FOXI3 | 4 | 0.414 | inactive
FOXI3 | 5 | 0.851 | inactive
FOXI3 | 6 | 0.268 | inactive
BORA | 1 | 0.75 | inactive
BORA | 2 | -0.0975 | inactive
BORA | 3 | 3 | inactive
KLKB1 | 1 | 4.12 | inactive
KLKB1 | 2 | -0.405 | inactive
KLKB1 | 3 | -0.0179 | inactive
TOR3A | 1 | 0.021 | inactive
TOR3A | 2 | -0.0743 | inactive
TOR3A | 3 | -0.188 | inactive
RTKN | 1 | -1.01 | inactive
RTKN | 2 | -0.0703 | inactive
RTKN | 3 | -0.603 | inactive
ZNF275 | 1 | -0.811 | inactive
ZNF275 | 2 | -0.62 | inactive
ZNF275 | 3 | -0.348 | inactive

4 entries already listed, sorted by “G2 robust z-score”, lowest first:
gene symbol | reagent no. | G2 robust z-score | activity call
CTSD | 3 | -0.879 | inactive
SLC15A1 | 1 | -0.818 | inactive
SLC15A1 | 2 | 0.648 | inactive
SLC15A1 | 3 | 2.63 | inactive
